This experiment has as its target Flag-TRF2 (telomeric repeat-binding factor 2 with Flag tag) (human) (UniProt Q15554). Put plainly: affinity purification with mass spectrometry; Flag-TRF2 transfected in HEK293T, 48 h; lysate in 50 mM Tris-HCl pH 7.4, 150 mM NaCl, 1 mM EDTA, 1 mM DTT, 0.3% NP-40; captured on Flag M2 beads, eluted with Flag peptide, SDS-PAGE, silver stain, bands analysed by MS.

By UniProt entry, the sequences of proteins in these tests, tags left out.
UniProt Q15554: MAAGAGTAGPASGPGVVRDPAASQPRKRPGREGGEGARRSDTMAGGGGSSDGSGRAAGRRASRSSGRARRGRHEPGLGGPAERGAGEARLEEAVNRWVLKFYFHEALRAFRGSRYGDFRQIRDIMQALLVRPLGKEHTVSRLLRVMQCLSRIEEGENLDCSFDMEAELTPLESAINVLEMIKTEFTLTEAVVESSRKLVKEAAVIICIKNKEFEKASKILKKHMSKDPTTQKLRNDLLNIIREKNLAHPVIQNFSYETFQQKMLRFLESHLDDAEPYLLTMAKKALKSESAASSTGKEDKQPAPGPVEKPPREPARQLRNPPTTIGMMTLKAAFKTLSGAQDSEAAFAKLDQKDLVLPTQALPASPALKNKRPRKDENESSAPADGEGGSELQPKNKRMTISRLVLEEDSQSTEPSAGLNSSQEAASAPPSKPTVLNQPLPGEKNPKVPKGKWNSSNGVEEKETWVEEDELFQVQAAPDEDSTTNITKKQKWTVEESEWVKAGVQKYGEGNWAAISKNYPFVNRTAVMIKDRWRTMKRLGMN
UniProt Q14978: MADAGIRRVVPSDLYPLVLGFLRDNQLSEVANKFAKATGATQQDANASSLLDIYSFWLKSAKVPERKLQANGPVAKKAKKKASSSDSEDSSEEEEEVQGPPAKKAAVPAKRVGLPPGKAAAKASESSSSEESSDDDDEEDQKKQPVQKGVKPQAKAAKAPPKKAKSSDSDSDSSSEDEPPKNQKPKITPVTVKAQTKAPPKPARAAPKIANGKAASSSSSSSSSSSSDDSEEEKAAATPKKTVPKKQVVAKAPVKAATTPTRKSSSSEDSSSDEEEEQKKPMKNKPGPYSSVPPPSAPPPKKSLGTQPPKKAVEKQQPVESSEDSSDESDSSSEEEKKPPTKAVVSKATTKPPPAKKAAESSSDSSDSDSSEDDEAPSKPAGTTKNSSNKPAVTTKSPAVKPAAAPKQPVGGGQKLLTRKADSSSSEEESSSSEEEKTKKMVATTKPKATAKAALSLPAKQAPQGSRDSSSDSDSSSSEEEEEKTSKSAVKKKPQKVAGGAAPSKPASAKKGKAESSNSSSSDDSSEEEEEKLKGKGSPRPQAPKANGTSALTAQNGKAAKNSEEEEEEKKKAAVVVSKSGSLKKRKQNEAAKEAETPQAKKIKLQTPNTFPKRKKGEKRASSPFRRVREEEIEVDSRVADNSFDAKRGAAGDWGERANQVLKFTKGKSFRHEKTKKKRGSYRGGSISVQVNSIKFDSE

Results are given in words; binding and its absence hold for the method and conditions named. Binding seen in cells or lysates may run through a third protein. Here binding means that the protein was enriched with, or labelled near, the bait; the list need not be complete.

In the case of “Nucleolar and coiled-body phosphoprotein 1 (NOLC1), endogenous (from UniProt Q14978 1-699)”, the binding result is “binds”.

(Values after paper PMC5938709.)
